Assay results from publication PMC11784589.
For at least one entry, the source does not settle the construct or the ends of the probe. A negative result means that nothing was seen under these conditions. At least one verdict was read from the data and is not stated in words by the source. Where a protein sequence is shown, tags need not be part of it.

Molecular target: T1, BcMYB30-His (UniProt A0A816SUQ6)
T1 sequence (looked up, limits assumed): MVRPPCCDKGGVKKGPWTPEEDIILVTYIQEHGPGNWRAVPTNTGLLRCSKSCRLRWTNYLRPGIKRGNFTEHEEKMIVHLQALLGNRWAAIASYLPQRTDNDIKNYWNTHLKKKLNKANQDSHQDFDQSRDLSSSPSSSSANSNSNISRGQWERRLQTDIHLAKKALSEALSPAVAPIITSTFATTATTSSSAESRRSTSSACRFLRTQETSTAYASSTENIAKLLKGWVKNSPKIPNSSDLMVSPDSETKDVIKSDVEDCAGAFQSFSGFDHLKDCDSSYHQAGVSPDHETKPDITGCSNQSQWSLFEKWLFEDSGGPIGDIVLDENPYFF
Experiment: EMSA
Conditions: EMSA: 24 °C, 30 min; chemiluminescent EMSA kit (Thermo Fisher); salt and pH not stated; recombinant protein; protein details: His (pET-28a)

Sequence | binding result
ACAAATGTTTTTTAAGGAGAA (double strand) [EMSA-SRC2-2-mut] | no binding
TGGTGTATTTTTTATGTTCGG (double strand) [EMSA-SRC2-1-mut] | no binding
